This passage reports binding results from article PMC5233616, “Structural and functional analyses of human DDX41 DEAD domain” (Protein & Cell, 2016).

These are yes or no findings as the source states them, for the method shown.

The test concerns the target human DDX41 (hDDX41) DEAD domain (human) (UniProt Q9UJV9). Description: multiangle static light scattering; DEAD domain protein in solution; calculated molecular weight 29.3 kDa; both purified.

B1: human DDX41 (hDDX41) DEAD domain (domain or fragment, UniProt Q9UJV9 153-410)
chain: LSMSEERHERVRKKYHILVEGDGIPPPIKSFKEMKFPAAILRGLKKKGIHHPTPIQIQGIPTILSGRDMIGIAFTGSGKTLVFTLPVIMFCLEQEKRLPFSKREGPYGLIICPSRELARQTHGILEYYCRLLQEDSSPLLRCALCIGGMSVKEQMETIRHGVHMMVATPGRLMDLLQKKMVSLDICRYLALDEADRMIDMGFEGDIRTIFSYFKGQRQTLLFSATMPKKIQNFAKSALVKPVTINVGRAGAASLDVIQ
Turning to B1, the binding result is “no binding”.
